Data taken from PMC4331492.
No constants are given. Whether binding was seen depends on the method and setting. In cells and extracts the contact can be indirect. Some binding calls cover weakened binding; strength is not graded here.

Chains of the proteins cited; added tags and fusions are not shown.
UniProt Q99814: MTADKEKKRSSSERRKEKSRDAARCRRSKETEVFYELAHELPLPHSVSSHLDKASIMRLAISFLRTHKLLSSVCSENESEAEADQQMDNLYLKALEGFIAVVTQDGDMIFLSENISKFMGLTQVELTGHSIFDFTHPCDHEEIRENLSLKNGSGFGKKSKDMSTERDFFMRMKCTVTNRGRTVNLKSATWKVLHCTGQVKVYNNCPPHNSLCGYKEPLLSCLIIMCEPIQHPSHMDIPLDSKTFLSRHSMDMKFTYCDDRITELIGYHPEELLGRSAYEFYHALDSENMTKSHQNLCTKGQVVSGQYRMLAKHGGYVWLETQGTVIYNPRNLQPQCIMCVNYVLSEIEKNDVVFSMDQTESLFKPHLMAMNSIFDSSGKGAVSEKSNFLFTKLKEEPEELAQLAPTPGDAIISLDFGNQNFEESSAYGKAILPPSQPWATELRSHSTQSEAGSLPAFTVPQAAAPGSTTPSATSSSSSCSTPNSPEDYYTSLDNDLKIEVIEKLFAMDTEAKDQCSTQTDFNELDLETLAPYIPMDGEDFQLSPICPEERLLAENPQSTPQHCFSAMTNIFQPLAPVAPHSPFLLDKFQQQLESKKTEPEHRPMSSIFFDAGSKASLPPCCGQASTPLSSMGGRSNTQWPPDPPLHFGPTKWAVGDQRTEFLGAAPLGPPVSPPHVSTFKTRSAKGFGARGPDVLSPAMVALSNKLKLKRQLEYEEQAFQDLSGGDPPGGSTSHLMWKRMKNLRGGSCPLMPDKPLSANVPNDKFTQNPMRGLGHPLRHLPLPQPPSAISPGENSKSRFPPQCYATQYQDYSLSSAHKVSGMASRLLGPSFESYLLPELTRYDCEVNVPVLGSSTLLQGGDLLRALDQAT
UniProt Q92793: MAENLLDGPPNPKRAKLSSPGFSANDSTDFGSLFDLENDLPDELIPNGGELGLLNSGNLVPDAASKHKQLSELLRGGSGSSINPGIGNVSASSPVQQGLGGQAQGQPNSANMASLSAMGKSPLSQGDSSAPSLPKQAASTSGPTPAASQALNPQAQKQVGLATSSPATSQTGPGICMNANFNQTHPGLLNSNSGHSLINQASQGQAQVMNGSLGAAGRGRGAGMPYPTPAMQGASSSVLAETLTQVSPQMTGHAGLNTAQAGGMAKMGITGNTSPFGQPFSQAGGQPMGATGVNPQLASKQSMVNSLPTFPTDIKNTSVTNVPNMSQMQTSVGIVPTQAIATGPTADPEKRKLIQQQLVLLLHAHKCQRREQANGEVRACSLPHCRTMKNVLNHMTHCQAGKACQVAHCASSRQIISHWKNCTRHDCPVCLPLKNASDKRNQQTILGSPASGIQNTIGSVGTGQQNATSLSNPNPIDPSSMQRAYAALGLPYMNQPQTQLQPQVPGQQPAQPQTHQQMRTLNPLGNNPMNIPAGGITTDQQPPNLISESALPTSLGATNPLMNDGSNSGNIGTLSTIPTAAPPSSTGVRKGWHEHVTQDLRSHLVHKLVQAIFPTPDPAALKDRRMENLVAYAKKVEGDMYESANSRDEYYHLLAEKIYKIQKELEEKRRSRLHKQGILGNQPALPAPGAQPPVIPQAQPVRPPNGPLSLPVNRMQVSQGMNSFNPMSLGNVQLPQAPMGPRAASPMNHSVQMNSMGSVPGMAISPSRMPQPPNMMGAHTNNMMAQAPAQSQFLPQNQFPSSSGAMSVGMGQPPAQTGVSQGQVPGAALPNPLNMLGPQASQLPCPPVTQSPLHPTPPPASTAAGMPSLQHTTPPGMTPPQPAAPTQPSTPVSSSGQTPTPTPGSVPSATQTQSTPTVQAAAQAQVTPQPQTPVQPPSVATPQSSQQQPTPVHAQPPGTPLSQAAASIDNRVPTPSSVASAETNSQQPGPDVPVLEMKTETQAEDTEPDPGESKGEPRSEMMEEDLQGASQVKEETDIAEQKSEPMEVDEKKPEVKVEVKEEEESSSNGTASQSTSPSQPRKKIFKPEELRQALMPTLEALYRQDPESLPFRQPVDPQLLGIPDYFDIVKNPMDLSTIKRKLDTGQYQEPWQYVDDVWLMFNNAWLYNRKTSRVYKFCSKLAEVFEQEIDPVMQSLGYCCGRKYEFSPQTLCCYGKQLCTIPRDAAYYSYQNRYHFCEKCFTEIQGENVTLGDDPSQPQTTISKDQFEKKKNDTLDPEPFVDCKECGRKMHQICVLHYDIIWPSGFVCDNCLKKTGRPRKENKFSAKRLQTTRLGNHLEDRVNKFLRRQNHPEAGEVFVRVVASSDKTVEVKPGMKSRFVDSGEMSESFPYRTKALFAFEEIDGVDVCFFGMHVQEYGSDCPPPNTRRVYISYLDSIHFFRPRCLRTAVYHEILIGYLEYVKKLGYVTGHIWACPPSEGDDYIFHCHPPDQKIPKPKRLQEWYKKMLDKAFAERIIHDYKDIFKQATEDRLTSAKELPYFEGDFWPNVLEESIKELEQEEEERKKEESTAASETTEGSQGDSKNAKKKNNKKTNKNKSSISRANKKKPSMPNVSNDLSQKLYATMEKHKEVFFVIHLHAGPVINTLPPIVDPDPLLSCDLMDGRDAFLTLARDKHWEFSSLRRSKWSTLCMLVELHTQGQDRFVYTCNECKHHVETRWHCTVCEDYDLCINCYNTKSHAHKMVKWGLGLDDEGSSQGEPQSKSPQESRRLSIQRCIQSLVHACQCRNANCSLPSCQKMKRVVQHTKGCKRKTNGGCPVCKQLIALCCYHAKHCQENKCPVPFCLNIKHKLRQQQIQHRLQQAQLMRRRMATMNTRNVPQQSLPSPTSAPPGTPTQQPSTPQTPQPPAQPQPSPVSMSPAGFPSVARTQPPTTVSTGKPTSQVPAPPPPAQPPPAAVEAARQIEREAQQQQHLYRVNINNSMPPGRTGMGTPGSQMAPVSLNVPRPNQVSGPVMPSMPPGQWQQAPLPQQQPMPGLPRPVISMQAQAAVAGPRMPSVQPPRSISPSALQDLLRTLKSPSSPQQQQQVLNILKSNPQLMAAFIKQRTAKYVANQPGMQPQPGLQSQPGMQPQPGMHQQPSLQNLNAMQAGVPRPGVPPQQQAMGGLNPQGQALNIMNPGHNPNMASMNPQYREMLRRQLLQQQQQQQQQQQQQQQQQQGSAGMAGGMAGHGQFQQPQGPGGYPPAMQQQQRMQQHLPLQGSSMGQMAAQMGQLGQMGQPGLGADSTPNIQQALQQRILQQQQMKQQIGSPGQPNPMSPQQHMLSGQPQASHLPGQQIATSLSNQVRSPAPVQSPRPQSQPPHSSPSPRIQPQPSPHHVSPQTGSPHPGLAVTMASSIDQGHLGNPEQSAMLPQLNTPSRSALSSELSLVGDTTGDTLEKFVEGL
UniProt Q09472: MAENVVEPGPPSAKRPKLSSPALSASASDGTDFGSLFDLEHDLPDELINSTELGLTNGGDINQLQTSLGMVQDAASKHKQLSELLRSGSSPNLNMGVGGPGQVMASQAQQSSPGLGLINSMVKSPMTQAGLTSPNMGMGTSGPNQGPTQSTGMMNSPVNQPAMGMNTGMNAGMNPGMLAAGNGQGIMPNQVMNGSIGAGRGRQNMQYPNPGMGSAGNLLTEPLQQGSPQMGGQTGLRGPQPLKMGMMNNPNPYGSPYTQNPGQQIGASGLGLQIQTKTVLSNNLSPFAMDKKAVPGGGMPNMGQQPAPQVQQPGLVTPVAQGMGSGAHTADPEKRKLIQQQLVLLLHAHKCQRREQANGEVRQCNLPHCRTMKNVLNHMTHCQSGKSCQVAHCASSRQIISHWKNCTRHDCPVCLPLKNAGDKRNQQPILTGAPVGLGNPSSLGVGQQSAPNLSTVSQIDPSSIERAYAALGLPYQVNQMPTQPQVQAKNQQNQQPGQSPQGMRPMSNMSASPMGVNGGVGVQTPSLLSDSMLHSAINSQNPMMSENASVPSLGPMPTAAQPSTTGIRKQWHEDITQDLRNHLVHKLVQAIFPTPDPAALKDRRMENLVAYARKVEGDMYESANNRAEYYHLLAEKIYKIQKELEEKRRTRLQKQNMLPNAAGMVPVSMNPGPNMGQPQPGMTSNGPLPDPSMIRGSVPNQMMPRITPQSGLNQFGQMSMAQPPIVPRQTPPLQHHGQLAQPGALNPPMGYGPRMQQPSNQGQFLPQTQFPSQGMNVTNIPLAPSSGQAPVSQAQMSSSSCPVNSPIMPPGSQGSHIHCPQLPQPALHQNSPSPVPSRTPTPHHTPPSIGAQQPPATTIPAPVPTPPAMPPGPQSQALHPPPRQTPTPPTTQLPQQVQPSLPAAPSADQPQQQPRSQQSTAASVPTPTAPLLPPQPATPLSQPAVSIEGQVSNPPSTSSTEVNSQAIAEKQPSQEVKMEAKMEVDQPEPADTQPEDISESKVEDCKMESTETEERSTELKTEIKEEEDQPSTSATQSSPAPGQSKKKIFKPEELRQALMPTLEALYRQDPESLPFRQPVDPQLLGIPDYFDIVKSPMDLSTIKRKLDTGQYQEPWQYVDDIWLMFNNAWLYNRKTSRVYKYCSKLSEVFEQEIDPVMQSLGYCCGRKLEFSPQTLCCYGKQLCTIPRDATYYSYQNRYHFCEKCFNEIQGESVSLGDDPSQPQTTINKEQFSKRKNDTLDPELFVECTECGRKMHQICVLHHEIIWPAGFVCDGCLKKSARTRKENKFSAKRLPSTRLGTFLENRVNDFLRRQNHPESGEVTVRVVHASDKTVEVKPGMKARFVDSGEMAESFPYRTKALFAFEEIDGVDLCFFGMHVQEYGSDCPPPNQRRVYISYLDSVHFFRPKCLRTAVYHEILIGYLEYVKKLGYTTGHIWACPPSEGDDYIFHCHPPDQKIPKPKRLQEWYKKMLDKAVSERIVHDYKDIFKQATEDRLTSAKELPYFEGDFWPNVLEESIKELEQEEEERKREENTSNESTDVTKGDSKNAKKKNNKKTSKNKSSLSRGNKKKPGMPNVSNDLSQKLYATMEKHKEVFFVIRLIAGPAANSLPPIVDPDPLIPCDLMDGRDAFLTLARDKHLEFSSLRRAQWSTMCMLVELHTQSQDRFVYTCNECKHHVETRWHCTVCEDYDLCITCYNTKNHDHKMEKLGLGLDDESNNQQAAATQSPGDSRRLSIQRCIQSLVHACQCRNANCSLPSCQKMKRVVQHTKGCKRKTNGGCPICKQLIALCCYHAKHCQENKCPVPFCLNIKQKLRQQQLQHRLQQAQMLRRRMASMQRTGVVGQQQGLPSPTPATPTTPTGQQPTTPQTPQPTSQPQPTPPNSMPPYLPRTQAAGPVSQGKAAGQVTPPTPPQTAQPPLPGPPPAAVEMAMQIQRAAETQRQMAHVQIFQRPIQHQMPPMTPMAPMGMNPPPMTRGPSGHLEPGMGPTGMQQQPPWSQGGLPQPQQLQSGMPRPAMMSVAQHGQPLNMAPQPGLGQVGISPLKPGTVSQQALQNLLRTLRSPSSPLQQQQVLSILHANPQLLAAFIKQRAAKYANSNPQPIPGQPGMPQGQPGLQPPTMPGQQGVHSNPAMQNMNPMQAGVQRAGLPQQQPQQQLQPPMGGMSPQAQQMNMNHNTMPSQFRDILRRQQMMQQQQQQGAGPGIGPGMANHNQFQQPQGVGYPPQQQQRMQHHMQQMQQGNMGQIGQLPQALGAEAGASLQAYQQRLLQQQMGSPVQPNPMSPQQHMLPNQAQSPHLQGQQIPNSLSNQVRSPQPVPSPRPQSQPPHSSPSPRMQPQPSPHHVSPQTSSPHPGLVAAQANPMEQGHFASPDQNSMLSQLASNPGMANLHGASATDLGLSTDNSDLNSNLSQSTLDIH

What was measured:
[1] = target: Hypoxia Inducible Factor 2 alpha (HIF-2α) (human (endogenous in HT1080)) (UniProt Q99814); test: condition: only after ACSS2 knock-down, early (4 hr) hypoxia; co-IP; as a1; cells after ACSS2 siRNA knock-down (with or without FIH1 knock-down), early (4 hr) hypoxia
[2] = target: Hypoxia Inducible Factor 2 alpha (HIF-2α) (human (endogenous in HT1080)) (UniProt Q99814); test: co-IP; in vitro: acetyl CoA (50 μM), ATP (100 μM) or acetate (50 μM) added to 50 μl HT1080 extract (ACSS2-depleted or ACSS2-replete, from hypoxia or low glucose cells), 30°C for 30 min, then endogenous HIF-2α immunoprecipitated and immunoblot for CBP or p300
[3] = target: Hypoxia Inducible Factor 2 alpha (HIF-2α) (human (endogenous in HT1080)) (UniProt Q99814); test: co-IP; endogenous HIF-2α immunoprecipitated from HT1080 extracts (Universal Co-IP kit, protein A agarose), immunoblot for CBP or p300; cells exposed to hypoxia (4 or 16 hr), low glucose (2 or 24 hr) or 0.5 mM acetate (4 hr); control or FIH1 siRNA
[4] = target: Hypoxia Inducible Factor 2 alpha (HIF-2α) (human (endogenous in HT1080)) (UniProt Q99814); test: co-IP; as a1; cells after SIRT1 siRNA knock-down, then hypoxia, low glucose or acetate exposure
[5] = target: Hypoxia Inducible Factor 2 alpha (HIF-2α) (human (endogenous in HT1080)) (UniProt Q99814); test: condition: only cells under glucose deprivation (early 2 hr or late 24 hr); co-IP; as a1; cells under low glucose (1 mM), early (2 hr) or late (24 hr), FIH1 not knocked down (also after ACSS2 knock-down)
[6] = target: Hypoxia Inducible Factor 2 alpha (HIF-2α) (human (endogenous in HT1080)) (UniProt Q99814); test: condition: only cells after acetate addition without FIH1 knock-down; co-IP; as a1; cells treated with acetate (4 hr), FIH1 not knocked down (also after ACSS2 knock-down)
[7] = target: Hypoxia Inducible Factor 2 alpha (HIF-2α) (human (endogenous in HT1080)) (UniProt Q99814); test: co-IP; as a1; cells after ACSS2 siRNA knock-down (with or without FIH1 knock-down), early (4 hr) hypoxia

Substance | binding [1] | binding [2] | binding [3] | binding [4] | binding [5] | binding [6] | binding [7]
Creb binding protein (CBP) (from UniProt Q92793 1-2442) | no binding | binds | binds | no binding (condition: after SIRT1 knock-down) |  |  | 
p300 (from UniProt Q09472 1-2414) |  |  | binds |  | no binding | no binding | binds
